In patent US20100041694A1, “AGRICULTURAL COMPOSITION FOR CONTROLLING OR PREVENTING PLANT DISEASES CAUSED BY PLANT PATHOGENIC MICROBES” (Sumitomo Chemical Company, Limited, priority 2007, published 2010):
Some entries share one result that the patent states for a list of compounds.

Experiments:
Assay type in all cases: in vivo
Fusarium oxysporum = assay: Preventing infection by tomato wilt by soil treatment (irrigation); conditions: tomato (Patio) in contaminated soil, 10 mg compound per pot by soil irrigation, 1 month
[1] = test system: Verticillium albo-atrum, V. dahliae, V. nigrescens; assay: Potato blue stem, soil irrigation treatment; conditions: potato (Danshaku) in contaminated soil, 10 mg compound per pot by soil irrigation, 2 months
Gibberella fujikuroi = assay: Rice bakanae disease, seed treatment; conditions: contaminated unhulled rice, seed treatment 200 g compound per 100 kg seeds, 1 month
Gaeumannomyces graminis = assay: Malt damping off, seed treatment; conditions: contaminated malt seeds, seed treatment 200 g compound per 100 kg seeds, 1 month

SMILES: O=C(Cc1cccc(Oc2ccccc2)c1)Nc1ccc2ncsc2c1 [Compound 37]
- blotches in treated plants (Fusarium oxysporum): no blotches are found
- growth of treated plants (Fusarium oxysporum): favorably grow at a level equivalent to that of plants that grow have in noncontaminated soil
- blotches in treated plants [1]: no blotches are found
- growth of treated plants [1]: favorably grow at a level equivalent to that of plants that grow in noncontaminated soil
- growth of treated plants (Gibberella fujikuroi): favorably grow at a level equivalent to that of plants that have grown from noncontaminated unhulled rice
- growth of treated plants (Gaeumannomyces graminis): favorably grow at a level equivalent to that of plants that grow from noncontaminated seeds

SMILES: O=C(NCc1cc(F)cc(F)c1)c1ccc2ncccc2c1 [Compound 61]
- blotches in treated plants (Fusarium oxysporum): no blotches are found
- growth of treated plants (Fusarium oxysporum): favorably grow at a level equivalent to that of plants that grow have in noncontaminated soil
- blotches in treated plants [1]: no blotches are found
- growth of treated plants [1]: favorably grow at a level equivalent to that of plants that grow in noncontaminated soil
- growth of treated plants (Gibberella fujikuroi): favorably grow at a level equivalent to that of plants that have grown from noncontaminated unhulled rice
- growth of treated plants (Gaeumannomyces graminis): favorably grow at a level equivalent to that of plants that grow from noncontaminated seeds

SMILES: O=C(NCc1cc(OCc2ccccc2)ccc1F)c1ccc2ncccc2c1 [Compound 101]
- blotches in treated plants (Fusarium oxysporum): no blotches are found
- growth of treated plants (Fusarium oxysporum): favorably grow at a level equivalent to that of plants that grow have in noncontaminated soil
- blotches in treated plants [1]: no blotches are found
- growth of treated plants [1]: favorably grow at a level equivalent to that of plants that grow in noncontaminated soil
- growth of treated plants (Gibberella fujikuroi): favorably grow at a level equivalent to that of plants that have grown from noncontaminated unhulled rice
- growth of treated plants (Gaeumannomyces graminis): favorably grow at a level equivalent to that of plants that grow from noncontaminated seeds

SMILES: COc1ccc(CNC(=O)c2ccc3ncccc3c2)cc1C [Compound 107]
- blotches in treated plants (Fusarium oxysporum): no blotches are found
- growth of treated plants (Fusarium oxysporum): favorably grow at a level equivalent to that of plants that grow have in noncontaminated soil
- blotches in treated plants [1]: no blotches are found
- growth of treated plants [1]: favorably grow at a level equivalent to that of plants that grow in noncontaminated soil
- growth of treated plants (Gibberella fujikuroi): favorably grow at a level equivalent to that of plants that have grown from noncontaminated unhulled rice
- growth of treated plants (Gaeumannomyces graminis): favorably grow at a level equivalent to that of plants that grow from noncontaminated seeds

SMILES: CCOC(=O)CCCOc1cccc(CNC(=O)c2ccc3ncccc3c2)c1 [Compound 122]
- blotches in treated plants (Fusarium oxysporum): no blotches are found
- growth of treated plants (Fusarium oxysporum): favorably grow at a level equivalent to that of plants that grow have in noncontaminated soil
- blotches in treated plants [1]: no blotches are found
- growth of treated plants [1]: favorably grow at a level equivalent to that of plants that grow in noncontaminated soil
- growth of treated plants (Gibberella fujikuroi): favorably grow at a level equivalent to that of plants that have grown from noncontaminated unhulled rice
- growth of treated plants (Gaeumannomyces graminis): favorably grow at a level equivalent to that of plants that grow from noncontaminated seeds

SMILES: COc1cc(CNC(=O)c2ccc3ncccc3c2)ccc1F [Compound 142]
- blotches in treated plants (Fusarium oxysporum): no blotches are found
- growth of treated plants (Fusarium oxysporum): favorably grow at a level equivalent to that of plants that grow have in noncontaminated soil
- blotches in treated plants [1]: no blotches are found
- growth of treated plants [1]: favorably grow at a level equivalent to that of plants that grow in noncontaminated soil
- growth of treated plants (Gibberella fujikuroi): favorably grow at a level equivalent to that of plants that have grown from noncontaminated unhulled rice
- growth of treated plants (Gaeumannomyces graminis): favorably grow at a level equivalent to that of plants that grow from noncontaminated seeds

SMILES: O=C(NCc1nnn(Cc2ccccc2)n1)c1ccc2ncccc2c1 [Compound 154]
- blotches in treated plants (Fusarium oxysporum): no blotches are found
- growth of treated plants (Fusarium oxysporum): favorably grow at a level equivalent to that of plants that grow have in noncontaminated soil
- blotches in treated plants [1]: no blotches are found
- growth of treated plants [1]: favorably grow at a level equivalent to that of plants that grow in noncontaminated soil
- growth of treated plants (Gibberella fujikuroi): favorably grow at a level equivalent to that of plants that have grown from noncontaminated unhulled rice
- growth of treated plants (Gaeumannomyces graminis): favorably grow at a level equivalent to that of plants that grow from noncontaminated seeds

SMILES: CCCCCc1ccc(CNC(=O)c2ccc3ncsc3c2)cc1 [Compound 182]
- blotches in treated plants (Fusarium oxysporum): no blotches are found
- growth of treated plants (Fusarium oxysporum): favorably grow at a level equivalent to that of plants that grow have in noncontaminated soil
- blotches in treated plants [1]: no blotches are found
- growth of treated plants [1]: favorably grow at a level equivalent to that of plants that grow in noncontaminated soil
- growth of treated plants (Gibberella fujikuroi): favorably grow at a level equivalent to that of plants that have grown from noncontaminated unhulled rice
- growth of treated plants (Gaeumannomyces graminis): favorably grow at a level equivalent to that of plants that grow from noncontaminated seeds

SMILES: N#Cc1cccc(Oc2ccc(CNC(=O)c3ccc4ncsc4c3)s2)c1 [Compound 184]
- blotches in treated plants (Fusarium oxysporum): no blotches are found
- growth of treated plants (Fusarium oxysporum): favorably grow at a level equivalent to that of plants that grow have in noncontaminated soil
- blotches in treated plants [1]: no blotches are found
- growth of treated plants [1]: favorably grow at a level equivalent to that of plants that grow in noncontaminated soil
- growth of treated plants (Gibberella fujikuroi): favorably grow at a level equivalent to that of plants that have grown from noncontaminated unhulled rice
- growth of treated plants (Gaeumannomyces graminis): favorably grow at a level equivalent to that of plants that grow from noncontaminated seeds

SMILES: O=C(NCc1ccc(Cc2cccc(F)c2)o1)c1ccc2ncsc2c1 [Compound 186]
- blotches in treated plants (Fusarium oxysporum): no blotches are found
- growth of treated plants (Fusarium oxysporum): favorably grow at a level equivalent to that of plants that grow have in noncontaminated soil
- blotches in treated plants [1]: no blotches are found
- growth of treated plants [1]: favorably grow at a level equivalent to that of plants that grow in noncontaminated soil
- growth of treated plants (Gibberella fujikuroi): favorably grow at a level equivalent to that of plants that have grown from noncontaminated unhulled rice
- growth of treated plants (Gaeumannomyces graminis): favorably grow at a level equivalent to that of plants that grow from noncontaminated seeds

SMILES: Cc1ccccc1CNC(=O)c1ccc2ncsc2c1 [Compound 187]
- blotches in treated plants (Fusarium oxysporum): no blotches are found
- growth of treated plants (Fusarium oxysporum): favorably grow at a level equivalent to that of plants that grow have in noncontaminated soil
- blotches in treated plants [1]: no blotches are found
- growth of treated plants [1]: favorably grow at a level equivalent to that of plants that grow in noncontaminated soil
- growth of treated plants (Gibberella fujikuroi): favorably grow at a level equivalent to that of plants that have grown from noncontaminated unhulled rice
- growth of treated plants (Gaeumannomyces graminis): favorably grow at a level equivalent to that of plants that grow from noncontaminated seeds

SMILES: Cc1ccc(CNC(=O)c2ccc3ncsc3c2)cc1 [Compound 189]
- blotches in treated plants (Fusarium oxysporum): no blotches are found
- growth of treated plants (Fusarium oxysporum): favorably grow at a level equivalent to that of plants that grow have in noncontaminated soil
- blotches in treated plants [1]: no blotches are found
- growth of treated plants [1]: favorably grow at a level equivalent to that of plants that grow in noncontaminated soil
- growth of treated plants (Gibberella fujikuroi): favorably grow at a level equivalent to that of plants that have grown from noncontaminated unhulled rice
- growth of treated plants (Gaeumannomyces graminis): favorably grow at a level equivalent to that of plants that grow from noncontaminated seeds

SMILES: CCOc1cccc(CNC(=O)c2ccc3ncsc3c2)c1 [Compound 191]
- blotches in treated plants (Fusarium oxysporum): no blotches are found
- growth of treated plants (Fusarium oxysporum): favorably grow at a level equivalent to that of plants that grow have in noncontaminated soil
- blotches in treated plants [1]: no blotches are found
- growth of treated plants [1]: favorably grow at a level equivalent to that of plants that grow in noncontaminated soil
- growth of treated plants (Gibberella fujikuroi): favorably grow at a level equivalent to that of plants that have grown from noncontaminated unhulled rice
- growth of treated plants (Gaeumannomyces graminis): favorably grow at a level equivalent to that of plants that grow from noncontaminated seeds

SMILES: CCCOc1cccc(CNC(=O)c2ccc3ncsc3c2)c1 [Compound 192]
- blotches in treated plants (Fusarium oxysporum): no blotches are found
- growth of treated plants (Fusarium oxysporum): favorably grow at a level equivalent to that of plants that grow have in noncontaminated soil
- blotches in treated plants [1]: no blotches are found
- growth of treated plants [1]: favorably grow at a level equivalent to that of plants that grow in noncontaminated soil
- growth of treated plants (Gibberella fujikuroi): favorably grow at a level equivalent to that of plants that have grown from noncontaminated unhulled rice
- growth of treated plants (Gaeumannomyces graminis): favorably grow at a level equivalent to that of plants that grow from noncontaminated seeds

SMILES: CCCCOc1cccc(CNC(=O)c2ccc3ncsc3c2)c1 [Compound 193]
- blotches in treated plants (Fusarium oxysporum): no blotches are found
- growth of treated plants (Fusarium oxysporum): favorably grow at a level equivalent to that of plants that grow have in noncontaminated soil
- blotches in treated plants [1]: no blotches are found
- growth of treated plants [1]: favorably grow at a level equivalent to that of plants that grow in noncontaminated soil
- growth of treated plants (Gibberella fujikuroi): favorably grow at a level equivalent to that of plants that have grown from noncontaminated unhulled rice
- growth of treated plants (Gaeumannomyces graminis): favorably grow at a level equivalent to that of plants that grow from noncontaminated seeds
